Patent publication US20250263439A1 (REGENTS OF THE UNIVERSITY OF MICHIGAN, priority 2018, published 2025)
Bridge positions count the residues as written; N and C are the ends. Square brackets hold non-standard residues; d marks the D form. Peptide text beside a SMILES is read from it. I, II: the chains in the order shown. * marks the point of attachment. X1 = CC1(C)C(=CC=C2CCCC(C=CC3=[N+](CCCCCC(=O)NCCN4C(=O)CC(*)C4=O)c4ccc(S(=O)(=O)O)cc4C3(C)C)=C2Oc2ccc(S(=O)(=O)O)cc2)N(CCCCS(=O)(=O)[O-])c2ccc(S(=O)(=O)O)cc21; AEEEA = NCCOCCOCCOCC(=O)O

Columns and labels:
[1] = test system: OE33 human xenograft tumor; test: Immunofluorescence of OE33 xenograft tumor sections ex vivo
Procedure: Immunofluorescence was performed to validate target expression in sections of OE33 human xenograft tumor ex vivo.

[2] = test system: EGFR and HER2 on SKBr3 cells; test: Co-localization of IRDye800 heterodimer and antibody binding on SKBr3 cells; assay type: cell-based, human; conditions: merged image
[3] = general procedure: Fmoc solid-phase peptide synthesis; rink amide MBHA resin; HBTU/HOBt; conditions: whole synthesis
[4] = test system: Barrett's neoplasia (HGD and EAC); test: Confocal microscopy of human esophageal specimens ex vivo; conditions: for AUC (ROC curve): detection of Barrett's neoplasia; for sensitivity (ROC curve) / specificity (ROC curve): detection of Barrett's neoplasia (HGD and EAC) versus pathology, heterodimer at T/B ratio of 5.9
Procedure: The fluorescence intensities from the human esophageal specimens were fit according to 4 histological classifications, including squamous (SQ), Barrett's esophagus (BE), high-grade dysplasia (HGD), and esophageal adenocarcinoma (EAC), and used a one-way ANOVA and used Tukey's multiple comparisons. Co-localization of peptide and antibody binding was evaluated using Pearson's correlation coefficient.
Using confocal microscopy, specific heterodimer binding to Barrett's neoplasia was validated on human specimens ex vivo. Formalin-fixed, paraffin-embedded (FFPE) specimens of human esophagus were obtained from the archived tissue bank in the Department of Pathology, University of Michigan. The tissues were cut into […], deparaffinized, and rehydrated using standard conditions. Two-step acidic and protease-based antigen retrieval was performed. The sections were blocked with protein serum for 10 min at RT followed by rinsing with PBS, and then incubated with the heterodimer (0.5 μM) for ten min in dark conditions at RT. The sections were then washed for three min 3× with PBS and further incubated sequentially with 1:200 dilution of EGFR monoclonal antibody (H11, #MA5-13070, Invitrogen) and 1:500 goat anti-mouse IgG (H+L) AF-568-labeled secondary antibody (#A-11004, Thermo Fisher Scientific), 1:500 dilution of ErbB2 primary antibody (#29D8, rabbit monoclonal antibody #2165S, Cell Signaling Inc), and 1:1000 goat anti-rabbit IgG (H+L) AF-488-labeled secondary antibody (#A11008, Life Technologies Corp). Each antibody was incubated for 1 hour at RT. Sections were washed with TBST 3× and mounted with Prolong Gold reagent containing DAPI (Invitrogen) using #1 cover glass ([…]). Confocal fluorescence microscopy was performed using DAPI, AF488, AF568 and Cy5.5 filter sets. Image quantification was performed by placing 3 boxes with dimensions of 20×20 μm^2 completely within cells found in the epithelium. Mean fluorescence intensities were measured using custom Matlab software (Mathworks). Regions of saturated intensities were avoided.

| Compound | isolated yield [3] | final HPLC purity ([3]; 280 nm) | AUC (ROC curve) [4] | sensitivity (ROC curve) [4] | specificity (ROC curve) [4] | further results |
| --- | --- | --- | --- | --- | --- | --- |
| CC1(C)C(=CC=C2CCCC(C=CC3=[N+](CCCCCC(=O)NCCN4C(=O)CC(SC[C@H](NC(=O)[C@H](CCCCNC(=O)COCCOCCOCCNC(=O)[C@H](CCC(=O)O)NC(=O)[C@H](CCCNC(=N)N)NC(=O)[C@@H]5CCCN5C(=O)[C@H](CCCCN)NC(=O)[C@H](Cc5c[nH]cn5)NC(=O)[C@H](CCCNC(=N)N)NC(=O)[C@@H](N)CCC(N)=O)NC(=O)COCCOCCOCCNC(=O)[C@H](Cc5ccccc5)NC(=O)[C@H](CCCNC(=N)N)NC(=O)[C@@H]5CCCN5C(=O)[C@H](CC(N)=O)NC(=O)[C@@H]5CCCN5C(=O)[C@H](CO)NC(=O)[C@@H](N)CCCCN)C(N)=O)C4=O)c4ccc(S(=O)(=O)O)cc4C3(C)C)=C2Oc2ccc(S(=O)(=O)O)cc2)N(CCCCS(=O)(=O)[O-])c2ccc(S(=O)(=O)O)cc21 (some centres unmarked) [QRH*-KSP*-E3-IRDye800] (I: H-KSPNPRF[AEEEA]KC(X1)-NH2 / II: H-QRHKPRE[AEEEA]; amide I:9-II:C) | – | – | – | – | – | co-localization ρ with anti-EGFR [1]: 0.45; co-localization ρ with anti-HER2 [1]: 0.62; Pearson's correlation coefficient ρ with anti-EGFR [2]: 0.58; Pearson's correlation coefficient ρ with anti-HER2 [2]: 0.65 |
| KSP*-GGGSK-Cy5.5 (KSPNPRF; GGGSK linker, Cy5.5) | 50.9% | >95% | – | – | – | final HPLC purity ([3]; Analytical HPLC with C18 column at 280 nm): >98% |
| KSP*-GGGSK-Cy5.5 (KSPNPRF; GGGSK linker, Cy5.5) [KSP*-Cy5.5] | – | – | 0.91 | 85% | 79% | – |
| QRH*-GGGSK-Cy5.5 (QRHKPRE; GGGSK linker, Cy5.5) | 61.8% | >95% | – | – | – | – |
| QRH*-GGGSK-Cy5.5 (QRHKPRE; GGGSK linker, Cy5.5) [QRH*-Cy5.5] | – | – | 0.79 | 74% | 69% | – |
| QRH*-KSP*-Hex-Cy5.5 | 38.3% | >95% | – | – | – | – |
| heterodimer of QRHKPRE (SEQ ID NO: 1) and KSPNPRF (SEQ ID NO: 2) with E3 (triethyleneglycol) linker, Cy5.5 label [QRH*-KSP*-E3-Cy5.5] | – | – | 0.95 | 88% | 87% | – |
